Test results: paper PMC11045757, “Group 3 medulloblastoma transcriptional networks collapse under domain specific EP300/CBP inhibition” (Nature Communications, 2024)
No constants are given. Whether binding was seen depends on the method and setting.

Protein sequences, listed by entry. Tags and fused reporters are not part of them. Residues count along the entry.
UniProt Q09472, residues 1048-1161: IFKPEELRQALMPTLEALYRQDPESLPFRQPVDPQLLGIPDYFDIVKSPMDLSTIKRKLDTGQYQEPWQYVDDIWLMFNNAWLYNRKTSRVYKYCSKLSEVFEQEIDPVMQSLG
UniProt Q92793, residues 1081-1197: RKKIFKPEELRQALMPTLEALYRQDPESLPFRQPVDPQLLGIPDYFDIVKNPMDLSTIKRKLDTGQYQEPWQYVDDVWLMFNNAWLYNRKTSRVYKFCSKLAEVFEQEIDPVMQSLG

Assays:
[1] = biological target: bromodomain of EP300 (residues 1048-1161) (human) (UniProt Q09472); test: SEC; Superdex 75 equilibrated with 50 mM HEPES pH 7.5, 100 mM NaCl, 2 mM DTT; FPLC at 4 °C; last step of the purification; both purified
[2] = biological target: bromodomain of CBP (residues 1081-1197) (human) (UniProt Q92793); test: as above

| binding [1] | binding [2] | Substance |
| --- | --- | --- |
| no binding | – | bromodomain of EP300 (residues 1048-1161) (from UniProt Q09472 1048-1161) (domain or fragment) |
| – | no binding | bromodomain of CBP (residues 1081-1197) (from UniProt Q92793 1081-1197) (domain or fragment) |
